Data as given in the supplement of paper PMC11006884.
This is a selection; strong and weak results do not stand in their true shares.

compound: COC(=O)C#Cc1ccccc1 [methyl 3-phenylpropiolate]; assay: log2 ratio of iodoacetamide-alkyne labeling of the cysteine site, DMSO over compound (competition); higher = stronger covalent engagement of the cysteine by the compound, active = 1 or more; details: 500 µM; treatment time 1 h; system: HEK293T cell lysate
Summary of the method: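 HEK293T lysate at 2 mg/mL was treated with vehicle or electrophile (500 µM) for 1 h at ambient temperature, then labelled with iodoacetamide alkyne (1 h), clicked to sCIP-TMT reagents, pooled, digested with trypsin overnight at 37 °C, enriched on streptavidin and eluted with acid. Peptides were analysed by Orbitrap Eclipse LC-MS/MS with FAIMS and quantified in FragPipe, using duplicate channels and three replicates, with cysteines quantified in only one replicate excluded. The log2 competition ratio for each cysteine is the mean control-channel reporter intensity divided by the mean compound-channel reporter intensity.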

| Target | log2 ratio of iodoacetamide-alkyne labeling |
| --- | --- |
| AKAP13 C1276 (UniProt Q12802) | inactive: 0.52 |
| ILK C422 (UniProt Q13418) | inactive: 0.358 |
| SNTA1 C239 (UniProt Q13424) | inactive: 0.102 |
| AP1B1 C129 (UniProt Q10567) | inactive: 0.414 |
| TRAF2 C129 (UniProt Q12933) | inactive: 0.4 |
| UniProt Q08170_C61 | inactive: 0.0854 |
| PRDX1 C83 (UniProt Q06830) | inactive: 0.229 |
| PSMD2 C779 (UniProt Q13200) | inactive: -0.00697 |
| UniProt Q13243_C63 | inactive: 0.221 |
| COASY C140 (UniProt Q13057) | active: 1.16 |
| EEF1A2 C326 (UniProt Q05639) | inactive: 0.25 |
| AKAP12 C1479 (UniProt Q02952) | inactive: 0.264 |
| AHNAK C1900 (UniProt Q09666) | inactive: 0.376 |
| UniProt Q12824_C350 | inactive: 0.273 |
| PRDX4 C51 (UniProt Q13162) | active: 1.66 |
| ILF3 C255 (UniProt Q12906) | inactive: 0.35 |
| EIF4G1 C821 (UniProt Q04637) | inactive: 0.105 |
| PPAT C496 (UniProt Q06203) | inactive: 0.238 |
| TJP1 C1727 (UniProt Q07157) | inactive: 0.0718 |

| Target | log2 ratio of iodoacetamide-alkyne labeling |
| --- | --- |
| TP53BP1 C1703 (UniProt Q12888) | inactive: 0.474 |
| IK C263 (UniProt Q13123) | inactive: 0.289 |
| GFPT1 C264 (UniProt Q06210) | inactive: 0.349 |
| LGALS3BP C496 (UniProt Q08380) | active: 1.72 |
| UniProt Q05655_C127 | inactive: 0.196 |
| CDC16 C46 (UniProt Q13042) | inactive: 0.152 |
| ILK C346 (UniProt Q13418) | active: 1.8 |
| PTPN13 C937 (UniProt Q12923) | inactive: 0.773 |
| AKAP12 C1399 (UniProt Q02952) | active: 1.16 |
| NCBP1 C616 (UniProt Q09161) | inactive: 0.123 |
| VAC14 C114 (UniProt Q08AM6) | inactive: 0.408 |
| UniProt Q12768_C21 | inactive: -0.126 |
| AHNAK C108 (UniProt Q09666) | inactive: 0.642 |
| UniProt Q12824_C147 | inactive: 0.35 |
| CEBPZ C411 (UniProt Q03701) | inactive: 0.261 |
| KLC1 C456 (UniProt Q07866) | inactive: 0.813 |
| PSMD2 C459 (UniProt Q13200) | inactive: 0.253 |
| UniProt Q03164_C990 | inactive: 0.335 |

Rewritten field by field: part of the list above
PTPN13 C937 (UniProt Q12923)
  log2 ratio of iodoacetamide-alkyne labeling: inactive: 0.773
AKAP12 C1399 (UniProt Q02952)
  log2 ratio of iodoacetamide-alkyne labeling: active: 1.16
